Measured values: patent US6458927B1, “Polypeptide with appetite regulating activity” (Novo Nordisk A/S, priority 1997, dated 2002)
Not every detail of the peptide structures is certain; ends, links or a residue may be inferred. Some entries repeat one wording, which the source may state once for all of them. Positions of bridges follow the written chain, without caps; N, C: chain ends. No end group written: not given here.

Experiments:
Mice = test: Test method for measuring appetite suppression in mice (milk consumption after ICV injection); assay type: in vivo; conditions: for % Feeding Suppression: food deprived, milk consumption over 10 minutes, 30 min after injection, percent reduction relative to control mean; for suppression of milk consumption (statistical significance, in words): intra-cerebroventricular injection in phosphate buffered saline, over the dose range tested for the substance
Procedure: Mice were deprived of their normal feed for two days and given free access to a solution of nutritionally complete infant formula milk (Complan®) for the first day, after which food deprivation was complete for the last day before testing. After one day of food deprivation, mice were injected intra-cerebroventricularly (ICV) in the lateral ventricle with 10 microliters of a solution containing the test substance. Thirty minutes after injection, mice were individually placed in a 15×15×15 cm test box with a stainless steel grid floor and a glass drinking tube which projected into the box. The drinking tube was connected to a reservoir containing the formula milk solution, and the interior of the drinking tube contained an electrode enabling the detection of drinking contacts with the solution by measuring the flow of a weak (unnoticeable) electric current through mice by means of an electronic apparatus connected to the drinking tube electrode and the stainless steel grid floor. Consumption of the milk solution was measured over a 10 minutes period by electronically recording the total amount of contact with the milk solution during the test session. The degree of appetite suppression produced by a given test substance was determined by statistical comparison of the duration of milk consumption by control (vehicle treated) mice with that of mice treated with a test substance. The degree of appetite suppression in a treated group of mice was expressed as percent reduction of consumption relative to the mean of the control group's response.

Male Wistar rats = test: Test method for measuring appetite suppression after intra-cerebral injection of a test substance in rats (food consumption); assay type: in vivo

Sequence	% Feeding Suppression (Mice; ICV dose 0.5 micrograms) [%]	% Feeding Suppression (Mice; ICV dose 1 microgram) [%]	% Feeding Suppression (Mice; ICV dose 2 micrograms) [%]	% Feeding Suppression (Mice; ICV dose 5 micrograms) [%]	% Feeding Suppression (Mice; ICV dose 10 micrograms) [%]	suppression of milk consumption (statistical significance, in words) (Mice)	% Feeding Suppression (Mice; ICV dose 0.1 micrograms) [%]	% Feeding Suppression (Mice; ICV dose 0.2 micrograms) [%]	suppression of food consumption (Male Wistar rats; 24 h food deprived, ICV 1 μg, food consumption for one hour, statistically significant, Example 21) [%]	% Feeding Suppression (Male Wistar rats; 24 h food deprived, ICV dose 0.1 micrograms, food consumption for one hour, Example 22) [%]	% Feeding Suppression (Male Wistar rats; 24 h food deprived, ICV dose 0.3 micrograms, food consumption for one hour, Example 22) [%]	% Feeding Suppression (Male Wistar rats; 24 h food deprived, ICV dose 1 microgram, food consumption for one hour, Example 22) [%]	% Feeding Suppression (Male Wistar rats; 24 h food deprived, ICV dose 3 micrograms, food consumption for one hour, Example 22) [%]	suppression of food consumption (statistical significance, in words) (Male Wistar rats; ICV injection of 0.3 μg and 3.0 μg, Example 22)
KYGQVPMCDAGEQCAVRKGARIGKLCDCPRGTSCNSFLLKCL (disulfide 8-26, 14-34, 28-41) [rat CART(61-102), Lys-Tyr-Gly-Gln-Val-Pro-Met-Cys-Asp-Ala-Gly-Glu-Gln-Cys-Ala-Val-Arg-Lys- Gly-Ala-Arg-Ile-Gly-Lys-Leu-Cys-Asp-Cys-Pro-Arg-Gly-Thr-Ser-Cys-Asn-Ser- Phe-Leu-Leu-Lys-Cys-Leu]	74	80	78	100	100	statistically significant suppression of milk consumption								
RIPIYEKKYGQVPMCDAGEQCAVRKGARIGKLCDCPRGTSCNSFLLKCL (disulfide 15-33, 21-41, 35-48) [rat CART(54-102), Arg-Ile-Pro-Ile-Tyr-Glu-Lys-Lys-Tyr-Gly-Gln-Val-Pro-Met-Cys-Asp-Ala-Gly- Glu-Gln-Cys-Ala-Val-Arg-Lys-Gly-Ala-Arg-Ile-Gly-Lys-Leu-Cys-Asp-Cys-Pro- Arg-Gly-Thr-Ser-Cys-Asn-Ser-Phe-Leu-Leu-Lys-Cys-Leu]	13	71	100	100	100	statistically significant suppression of milk consumption								
IPIYEKKYGQVPMCDAGEQCAVRKGARIGKLCDCPRGTSCNSFLLKCL (disulfide 14-32, 20-40, 34-47) [rat CART(55-102), Ile-Pro-Ile-Tyr-Glu-Lys-Lys-Tyr-Gly-Gln-Val-Pro-Met-Cys-Asp-Ala-Gly-Glu- Gln-Cys-Ala-Val-Arg-Lys-Gly-Ala-Arg-Ile-Gly-Lys-Leu-Cys-Asp-Cys-Pro-Arg- Gly-Thr-Ser-Cys-Asn-Ser-Phe-Leu-Leu-Lys-Cys-Leu]	98	99				statistically significant suppression of milk consumption	38	61	52	17	45	19	63	statistically significant suppression of food consumption
YGQVPMCDAGEQCAVRKGARIGKLCDCPRGTSCNSFLLKCL (disulfide 7-25, 13-33, 27-40) [rat CART(62-102), Tyr-Gly-Gln-Val-Pro-Met-Cys-Asp-Ala-Gly-Glu-Gln-Cys-Ala-Val-Arg-Lys-Gly- Ala-Arg-Ile-Gly-Lys-Leu-Cys-Asp-Cys-Pro-Arg-Gly-Thr-Ser-Cys-Asn-Ser-Phe- Leu-Leu-Lys-Cys-Leu]	30	55	60	89	100	statistically significant suppression of milk consumption								
